Measurements reported in publication PMC12670160, “A drug-repurposing screen of FDA- and EMA-approved drugs identifies two NF-κB inhibitors active against eumycetoma” (Journal of Antimicrobial Chemotherapy, 2025).
Where a name gives a salt, the structure may show the parent alone. About 130 (2.5%) of roughly 5,300 compounds showed an effect of 50% or more. The list shows a part of the results.

These compounds were tested on M. mycetomatis strain mm55. Settings: primary screen, metabolic activity vs growth control; 96 h, 2 µM; inhibitor.

| SMILES | % viability [%] |
| --- | --- |
| COCCCN1CCC(NC(=O)c2cc(Cl)c(N)c3c2OCC3)CC1 [ONC0004542, prucalopride] | 76.49 |
| Nc1nc(-c2ccc(Cl)c(Cl)c2)c(-c2ccncc2)s1 [ONC0001363, cgh2466] | 81.4 |
| CCN1CCN(Cc2ccc(C(=O)Nc3ccc(C)c(Oc4ccc5c(c4)CC(=O)N5)c3)cc2C(F)(F)F)CC1 [ONC0000098, ddr1in1] | 107.7 |
| COC[C@H](C)Oc1cc(O[C@@H](C)Cc2ccccc2)cc(C(=O)Nc2ccc(C(=O)O)cn2)c1 [ONC0001360, gka50] | 117.7 |
| N[C@@H](Cc1cc(I)c(Oc2ccc(O)c(I)c2)c(I)c1)C(=O)O [ONC0004152, liothyronine l isomer sodium] | 70.68 |
| CCC(=O)NC1Cc2ccccc2C(c2ccccc2)C1 (centres unmarked) [ONC0001473, 4ppdot] | 63.49 |
| O=C(Oc1cc(S(=O)(=O)c2ccccc2)ccc1[N+](=O)[O-])c1ccc(Cl)cc1 [ONC0005146, btb06584] | 71.25 |
| CN(C)C(=O)[C@H](O)[C@H](Cc1ccccc1)NC(=O)c1cc2cc(Cl)ccc2[nH]1 [ONC0005223, cp91149] | 141.1 |
| CC1(C(=O)O)NCCc2cc(O)c(O)cc21 (centres unmarked) [ONC0004346, salsolinol1carboxylicacid] | 112.4 |
| Cl/C(=C\n1cncn1)c1ccc(Cl)cc1Cl [ONC0000796, loreclezole] | 78.82 |
| Cl.Cn1cc(C(=O)[C@@H]2CCc3nc[nH]c3C2)c2ccccc21 [ONC0005309, ramosetron hydrochloride] | 116 |
| Cc1cc(CN2CCN(c3c(Br)cnc4nc(-c5ccc(N6CCN(C)CC6)cc5)[nH]c34)CC2)no1 [ONC0000867, cct137690] | 70.67 |
| Cc1ccc(=O)n(-c2ccccc2)c1 [ONC0000221, pirfenidone] | 50.61 |
| CN1CCC(=C2c3ccccc3Sc3ccccc32)CC1 [ONC0000674, pimethixene maleate] | 120.3 |
| Nc1c2ccccc2nc2ccccc12 [ONC0003246, aminacrine] | 117.4 |
| CN(C)C(=O)C(=O)c1cn(C)c2cc(Cl)c(C(=O)N3CCC(Cc4ccc(F)cc4)CC3)cc12 [ONC0001387, sx011] | 68.08 |
| O=C(NCc1ccccn1)Nc1nnc(-c2ccco2)o1 [ONC0003547, nk252] | 86.97 |
| COC(=O)CCC(=O)CN [ONC0003503, methyl aminolevulinatehcl] | 72.09 |
| CCCNC(=O)Nc1ccc(Oc2ncnc3cc(OC)c(OC)cc23)cc1Cl [ONC0004921, krn 633] | 115.3 |
| CC1(C)CCC(C)(C)c2c1cc(C(=O)Nc1cc(F)c(C(=O)O)c(F)c1)c(O)c2Cl [ONC0001249, agn 195183] | 77.74 |
| CCCCN(CCCC)CC(O)c1cc(Cl)cc2c1-c1ccc(Cl)cc1/C2=C/c1ccc(Cl)cc1 (centres unmarked) [ONC0000941, lumefantrine] | 75.53 |

| SMILES | % viability [%] |
| --- | --- |
| Cc1cn(-c2cc(NC(=O)c3ccc(C)c(Nc4nccc(-c5cccnc5)n4)c3)cc(C(F)(F)F)c2)cn1 [ONC0004624, nilotinib amn107] | 69.14 |
| CC[C@H](CC[C@@H](C)[C@H]1CC[C@H]2[C@@H]3CC=C4C[C@@H](O)CC[C@]4(C)[C@H]3CC[C@]12C)C(C)C [ONC0004996, sitosterol] | 86.55 |
| Cc1cc(O)cc(C)c1Cl [ONC0000774, chloroxylenol] | 60.66 |
| CC(=O)N(c1onc(C)c1C)S(=O)(=O)c1ccc(N)cc1 [ONC0003957, sulfisoxazole acetyl] | 60.72 |
| O=C(NCCCCN1CCN(c2cccc(Cl)c2Cl)CC1)c1ccc2c(c1)Cc1ccccc1-2 [ONC0001342, ngb2904] | 121.8 |
| Oc1cccc(O)c1 [ONC0003368, resorcinol] | 79.24 |
| CC(Cc1ccc(O)cc1)NCC(O)c1cc(O)cc(O)c1 (centres unmarked) [ONC0003251, fenoterol hydrobromide] | 75.98 |
| CC(N)CCCC(C)(C)O (centres unmarked) [ONC0002831, heptaminol hydrochloride] | 128.5 |
| CN1CCCN=C1/C=C/c1cccc(O)c1 [ONC0005548, oxantel pamoate] | 79.63 |
| N#CCC(=O)NN [ONC0002355, cyacetacide] | 110.9 |
| CC(C)(C)c1ccc(S(=O)(=O)/C=C/C#N)cc1 [bay117085] | 1.843 |
| COc1nccnc1NS(=O)(=O)c1ccc(N)cc1 [ONC0003783, sulfametopyrazine] | 85.99 |
| COc1ccc2cc(C(C)C(=O)Oc3ccc(C(N)=S)cc3)ccc2c1 (centres unmarked) [ONC0000870, atb346] | 83.85 |
| CCN1C[C@H](C)n2c(c(O)c3c(=O)n(Cc4ccc(F)c(Cl)c4)nc(C(=O)NC)c32)C1=O [ONC0005069, mk2048] | 69.52 |
| O=C(O)c1ccccc1S [ONC0003836, omercaptobenzoicacid] | 67.33 |
| Clc1ccc2c(N3CCN(CCCN4CCN(c5ccnc6cc(Cl)ccc56)CC4)CC3)ccnc2c1 [ONC0003887, 13bis47chloro4quinolinyl1piperazinylpropane tetraphosphate tetrahydrate] | 72.49 |
| C1CCc2nnnn2CC1 [ONC0005284, pentylenetetrazol] | 72.53 |
| CC(=O)c1c(C)c2cnc(Nc3ccc(N4CCNCC4)cn3)nc2n(C2CCCC2)c1=O [ONC0004470, pd 0332991 palbociclib hcl] | 138.7 |
| CN(C)c1ccc2c(c1)Sc1cc(N(C)C)ccc1N2.CS(=O)(=O)O [ONC0001830, leucomethylene blue mesylate] | 74.38 |
| C[C@H]1CO[C@@H]2Cn3cc(C(=O)NCc4ccc(F)cc4F)c(=O)c(O)c3C(=O)N12 [ONC0004326, cabotegravir gsk744 gsk1265744] | 131.5 |

As entered above:
In % viability [%], COCCCN1CCC(NC(=O)c2cc(Cl)c(N)c3c2OCC3)CC1 [ONC0004542, prucalopride] has 76.49
In % viability [%], CCN1C[C@H](C)n2c(c(O)c3c(=O)n(Cc4ccc(F)c(Cl)c4)nc(C(=O)NC)c32)C1=O [ONC0005069, mk2048] has 69.52
In % viability [%], COC(=O)CCC(=O)CN [ONC0003503, methyl aminolevulinatehcl] has 72.09
